Data reported in patent US20240390455A1, “METHODS AND COMPOSITIONS FOR TREATING CANCERS AND OTHER PROLIFERATIVE DISORDERS” (ARIZONA BOARD OF REGENTS ON BEHALF OF THE UNIVERSITY OF …, priority 2022, published 2024).
These are yes or no findings as the source states them, for the method shown. Some entries that bind do so weakly or less than the wild type.

Amino acid sequences for entries named in this document (tags omitted). Residues count along the entry.
UniProt Q15109, residues 23-404: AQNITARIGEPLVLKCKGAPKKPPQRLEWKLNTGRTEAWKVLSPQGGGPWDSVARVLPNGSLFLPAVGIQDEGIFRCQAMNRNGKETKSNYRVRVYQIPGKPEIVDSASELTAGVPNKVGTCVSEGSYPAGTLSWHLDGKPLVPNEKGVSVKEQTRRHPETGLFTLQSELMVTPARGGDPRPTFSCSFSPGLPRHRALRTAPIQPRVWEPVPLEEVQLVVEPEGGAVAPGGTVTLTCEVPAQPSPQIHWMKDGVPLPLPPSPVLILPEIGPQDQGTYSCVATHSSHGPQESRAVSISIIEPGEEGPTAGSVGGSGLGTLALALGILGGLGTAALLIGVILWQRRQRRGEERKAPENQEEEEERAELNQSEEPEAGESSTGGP

Experiments:
[1] = biological target: receptor for advanced glycation endproducts (RAGE), human, endogenous in human pulmonary artery smooth muscle cells (HPASMC) (human) (UniProt Q15109); experiment: RAGE immunoprecipitation from naive HPASMC treated with conditioned media, immunoblot
[2] = biological target: receptor for advanced glycation endproducts (RAGE), human, endogenous in human pulmonary artery smooth muscle cells (HPASMC) (human) (UniProt Q15109); experiment: RAGE immunoprecipitation from naive HPASMC treated with apoptotic conditioned media, immunoblot

B1: inositol monophosphatase 1 (IMPA1), human, endogenous in human cells (enzyme, UniProt P29218 1-277, looked up)
chain: MADPWQECMDYAVTLARQAGEVVCEAIKNEMNVMLKSSPVDLVTATDQKVEKMLISSIKEKYPSHSFIGEESVAAGEKSILTDNPTWIIDPIDGTTNFVHRFPFVAVSIGFAVNKKIEFGVVYSCVEGKMYTARKGKGAFCNGQKLQVSQQEDITKSLLVTELGSSRTPETVRMVLSNMEKLFCIPVHGIRSVGTAAVNMCLVATGGADAYYEMGIHCWDVAGAGIIVTEAGGVLMDVTGGPFDLMSRRVIAANNRILAERIAKEIQVIPLQRDDED
With B1 the binding [1] was “binds” and the binding [2] was “binds”.
